# Some of the results follow.
# B1: Thrombomodulin Lectin (Mus musculus) (protein)
# chain: LSALAKLQPTGSQCVEHECFALFQGPATFLDASQACQRLQGHLMTVRSSVAADVISLLLSQSSMDLGPWIGLQLPQGCDDPVHLGPLRGFQWVTGDNHTSYSRWARPNDQTAPLCGPLCVTVSTATEAAPGEPAWEEKPCETETQGFLCEFYFTASCRVDPIPVREDTKEEEGAGEPPVSPTPGSPTGPPSARPVLDEPRVPITQNPCPPLKECPPCAAPDLEGGPSVFIFPPKIKDVLMISLSPMVTCVVVDVSEDDPDVQISWFVNNVEVHTAQTQTHREDYNSTLRVVSALPIQHQDWMSGKAFACAVNNRALPSPIEKTISKPRGPVRAPQVYVLPPPAEEMTKKEFSLTCMITGFLPAEIAVDWTSNGRTEQNYKNTATVLDSDGSYFMYSKLRVQKSTWERGSLFACSVVHEGLHNHLTTKTISRSLGK
# How the values were obtained:
# Test in all cases: glycan array binding signal (z-score within array); higher = stronger binding
# Conditions in all cases: glycan notation: IUPAC condensed, linker removed
# Glc(b1-6)Glc = target: Glc(b1-6)Glc
# Procedure, shortened: (§1)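 Glycan array data were curated from 3228 arrays in the Consortium for Functional Glycomics database and kept only where the protein sequence was available. Glycan names were converted to IUPAC-condensed notation, and columns mapping to the same glycan were averaged. The binding signal is a within-array Z-score, averaged across arrays of the same protein sequence at different concentrations or buffers and across linkers. Negative Z-scores can be read as non-binding.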
# GlcA(b1-3)Gal = target: GlcA(b1-3)Gal
# Procedure, shortened: as §1
# GlcA(b1-3)GlcNAc = target: GlcA(b1-3)GlcNAc
# Procedure, shortened: as §1
# GlcA(b1-6)Gal = target: GlcA(b1-6)Gal
# Procedure, shortened: as §1
# [1] = target: GlcA3S(b1-3)Gal(b1-4)GlcNAc(b1-2)Man
# Procedure, shortened: as §1
# [2] = target: GlcA3S(b1-3)Gal(b1-4)GlcNAc(b1-3)Gal(b1-4)Glc
# Procedure, shortened: as §1
# [3] = target: GlcNAc(a1-3)Gal(b1-4)GlcNAc
# Procedure, shortened: as §1
# [4] = target: GlcNAc(a1-4)Gal(b1-3)GlcNAc
# Procedure, shortened: as §1
# [5] = target: GlcNAc(a1-4)Gal(b1-4)GalNAc
# Procedure, shortened: as §1
# [6] = target: GlcNAc(a1-4)Gal(b1-4)GlcNAc
# Procedure, shortened: as §1
# [7] = target: GlcNAc(a1-4)Gal(b1-4)GlcNAc(b1-3)Gal(b1-4)Glc
# Procedure, shortened: as §1
# [8] = target: GlcNAc(a1-4)Gal(b1-4)GlcNAc(b1-3)Gal(b1-4)GlcNAc
# Procedure, shortened: as §1
# [9] = target: GlcNAc(a1-4)Gal(b1-4)GlcNAc(b1-3)Gal(b1-4)GlcNAc(b1-3)Gal(b1-4)GlcNAc
# Procedure, shortened: as §1
# [10] = target: GlcNAc(a1-4)Gal(b1-4)GlcNAc(b1-3)Gal(b1-4)[Fuc(a1-3)]GlcNAc(b1-3)Gal(b1-4)[Fuc(a1-3)]GlcNAc
# Procedure, shortened: as §1
# [11] = target: GlcNAc(a1-6)Gal(b1-4)GlcNAc
# Procedure, shortened: as §1
# [12] = target: GlcNAc(b1-2)Gal(b1-3)GalNAc
# Procedure, shortened: as §1
# [13] = target: GlcNAc(b1-2)Man(a1-3)[GlcNAc(b1-2)Man(a1-6)]Man(b1-4)GlcNAc(b1-4)GlcNAc
# Procedure, shortened: as §1
# [14] = target: GlcNAc(b1-2)Man(a1-3)[GlcNAc(b1-2)Man(a1-6)]Man(b1-4)GlcNAc(b1-4)[Fuc(a1-6)]GlcNAc
# Procedure, shortened: as §1
# [15] = target: GlcNAc(b1-2)Man(a1-3)[GlcNAc(b1-4)][GlcNAc(b1-2)Man(a1-6)]Man(b1-4)GlcNAc(b1-4)GlcNAc
# Procedure, shortened: as §1
# [16] = target: GlcNAc(b1-2)Man(a1-3)[GlcNAc(b1-4)][GlcNAc(b1-2)Man(a1-6)]Man(b1-4)GlcNAc(b1-4)[Fuc(a1-6)]GlcNAc
# Procedure, shortened: as §1
# [17] = target: GlcNAc(b1-2)[GlcNAc(b1-4)]Man(a1-3)[GlcNAc(b1-2)Man(a1-6)]Man(b1-4)GlcNAc(b1-4)GlcNAc
# Procedure, shortened: as §1
# [18] = target: GlcNAc(b1-2)[GlcNAc(b1-4)]Man(a1-3)[GlcNAc(b1-4)][GlcNAc(b1-2)Man(a1-6)]Man(b1-4)GlcNAc(b1-4)GlcNAc
# Procedure, shortened: as §1
binder,measurement,setting,value
B1,glycan array binding signal (z-score),Glc(b1-6)Glc,0.351
same,glycan array binding signal (z-score),GlcA(b1-3)Gal,-0.555
same,glycan array binding signal (z-score),GlcA(b1-3)GlcNAc,0.119
same,glycan array binding signal (z-score),GlcA(b1-6)Gal,1.32
same,glycan array binding signal (z-score),[1],-0.496
same,glycan array binding signal (z-score),[2],-1.51
same,glycan array binding signal (z-score),[3],-1.21
same,glycan array binding signal (z-score),[4],0.075
same,glycan array binding signal (z-score),[5],1.42
same,glycan array binding signal (z-score),[6],0.354
same,glycan array binding signal (z-score),[7],-0.582
same,glycan array binding signal (z-score),[8],1.67
same,glycan array binding signal (z-score),[9],-0.346
same,glycan array binding signal (z-score),[10],0.73
same,glycan array binding signal (z-score),[11],1.09
same,glycan array binding signal (z-score),[12],-0.073
same,glycan array binding signal (z-score),[13],-0.521
same,glycan array binding signal (z-score),[14],-0.281
same,glycan array binding signal (z-score),[15],-0.823
same,glycan array binding signal (z-score),[16],0.81
same,glycan array binding signal (z-score),[17],0.317
same,glycan array binding signal (z-score),[18],-0.665

# 2 records drawn at random from the list so far, as already listed:
binder,measurement,setting,value
B1,glycan array binding signal (z-score),[11],1.09
same,glycan array binding signal (z-score),[7],-0.582

# — the supplement of paper PMC8728848
